Reference: patent publication US20200377485A1, “HYDANTOIN MODULATORS OF KV3 CHANNELS” (AUTIFONY THERAPEUTICS LIMITED, priority 2015, published 2020)
“Also recorded” adds a separate entry of the source. At least one compound was matched to its structure with a doubt left.

Columns and labels:
[1] = molecular target: T1, human Kv3.2 channels (hKv3.2) (Homo sapiens, UniProt Q96PR1); assay: IonWorks Quattro electrophysiology, hKv3.2 stable CHO-K1 cell line (potentiation; secondary analysis of activation time Tauact); type: cell-based
T1 construct: expressed in transfected cells
T1 sequence (Q96PR1 1-638): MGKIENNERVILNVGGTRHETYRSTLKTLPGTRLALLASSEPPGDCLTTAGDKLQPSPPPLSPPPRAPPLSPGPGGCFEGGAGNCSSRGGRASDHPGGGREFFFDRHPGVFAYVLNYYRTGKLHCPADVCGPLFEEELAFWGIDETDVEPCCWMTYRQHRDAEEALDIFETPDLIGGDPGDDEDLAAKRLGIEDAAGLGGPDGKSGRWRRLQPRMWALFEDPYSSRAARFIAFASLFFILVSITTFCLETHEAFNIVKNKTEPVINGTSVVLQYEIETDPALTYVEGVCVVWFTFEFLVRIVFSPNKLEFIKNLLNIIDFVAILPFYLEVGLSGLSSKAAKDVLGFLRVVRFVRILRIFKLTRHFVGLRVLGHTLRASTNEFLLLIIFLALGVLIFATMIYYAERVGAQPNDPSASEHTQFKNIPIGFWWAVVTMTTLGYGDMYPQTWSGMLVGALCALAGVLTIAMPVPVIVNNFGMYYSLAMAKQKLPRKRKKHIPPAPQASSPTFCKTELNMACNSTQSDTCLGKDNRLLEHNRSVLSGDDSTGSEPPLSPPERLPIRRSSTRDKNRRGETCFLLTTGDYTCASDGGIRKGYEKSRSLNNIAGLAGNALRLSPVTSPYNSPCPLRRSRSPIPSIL

[2] = test system: “fast-firing” interneurons in the somatosensory cortex; assay: Recordings from identified fast-firing interneurons, trains of depolarising current pulses at 100, 200 and 300 Hz (FIG. 2); type: cell-based, mouse; settings: 1 microM, n=6; trains at 300 Hz; without drug spike probability 1 up to 300 Hz; p<0.05; listed as Reference Example RE9

## CC[C@H]1NC(=O)N(c2ccc(Oc3cccc4c3C3(CC3)CO4)nc2)C1=O [RE9, (5R)-5-ethyl-3-[6-(spiro[1-benzofuran-3,1′-cyclopropan]-4-yloxy)-3-pyridinyl]-2,4-imidazolidinedione]
[1]; -15 mV depolarising step, concentration chosen to give ~0.3 nA at end of pulse: RE1 6.25, RE3 0.2, RE9 0.2, Example 1 0.8 μM, vehicle 7.1 ms
  Tauact mean (activation time constant of hKv3.2 current): 50.1 ms
[1]; as restated in text (mean ± SD, Table 1), concentration giving ~0.3 nA Kv3.2 current
  Tauact: 50.1 ± 7.5 ms
[2]
  ability of neurons to fire on each pulse (spike probability) at high frequency: reduces the ability of the neurons to fire in response to trains of depolarising pulses at 300 Hz; also recorded: the neurons were unable to follow trains at the highest frequency
